In patent US20170281799A1, “SYSTEMS AND METHODS FOR SCREENING OTOTOXIC, OTOPROTECTIVE, AND OTOREGENERATIVE COMPOUNDS USING AQUATIC MODELS” (ARIZONA BOARD OF REGENTS ON BEHALF OF THE UNIVERSITY OF …, priority 2014, published 2017):
“Also recorded” adds a separate entry of the source. At least one compound was matched to its structure with a doubt left.

Key:
lateral line hair cells = assay: Anatomical assay: YO-PRO1 staining, aggregate neuromast damage score; conditions: Dex 5/Cis 1000
Procedure: Following the drug exposure (see below for detailed methods), larvae were fluorescently stained/labeled in embryo medium containing 6 μM YO-PRO1 (Invitrogen; Y3603) for 20 min. YO-PRO1 is a common vital dye used for staining viable lateral line hair cells in zebrafish (Coffin A B, et al., Zebrafish. 2010 March; 7(1):3-11; Ou H C, et al., Drug Discov Today. 2010 April; 15(7-8):265-71; Ou H C, et al., Hear Res. 2007 November; 233(1-2):46-53; Santos F, et al., Hear Res. 2006 March; 213(1-2):25-33). Concentration and duration were optimized for this purpose. After labeling, the larvae were rinsed three times in embryo media and then anesthetized using 0.5 mM of MS-222 (Tricaine Methanesulfonate, Western Chemical Inc.) (Buck L M, et al., Hear Res. 2012 February; 284(1-2):67-81). The larvae were fixed in 2% paraformaldehyde for 1 hour at room temperature and stored in PBS overnight at 4° C. Fixed larvae were then mounted in 6% methylcellulose (Sigma; M7140) in 0.2 mm silicone chambers and covered with No. 1.5 cover glass (Warner Instruments; 64-0718) for confocal microscopy. Larvae were observed under a confocal microscope (Leica SP5) using 20× dry and 40× oil immersion lenses.
Treatment groups consisted of 3-7 fish. […] Each neuromast was scored from 0 to 3. […]

zebrafish = assay: Behavioral assay: rheotaxis in swimming test apparatus; format: in vivo, Danio rerio; conditions: Dex 5/Cis 1000
Text: The custom-built behavioral apparatus consists of 6 experimental lanes with laminar flow velocity controlled at 0.15 cm/sec, allowing the simultaneous testing of up to 6 differing experimental conditions. Each lane measures 10.2 cm in height×9.9 cm in width×25.4 cm in length. Lanes are partitioned with metal mesh dividers to contain fish in one central area, measuring 5.0 cm length×9.9 cm width, allowing for image capture (FIG. 3). E2 medium flows from a header tank through the experimental lanes to a media reserve tank and is then recycled via pump back to the header tank. […]
The experimental system is housed in a cabinet creating a condition free of ambient light, thus negating any influence of visual input on zebrafish swimming behavior. […] Image acquisition begins with 2 minutes of filming under no-flow conditions, next the water flow is turned on and the fish are allowed 1 minute to acclimate to the flow and then 2 minutes of flow behavior is recorded (FIG. 4).
Rheotaxis was defined as fish oriented headfirst, with an axial alignment within 30 degrees on either side of the directional flow vector and attempting to swim into the current. […] From the still images, the angle of every fish was measured using ImageJ and placed into an Excel spreadsheet for data processing (FIG. 6). […] Therefore, there were no negative values or angles measured between 181-360 degrees. […]

SMILES: C[C@@H]1C[C@H]2[C@@H]3CCC4=CC(=O)C=C[C@]4(C)[C@@]3(F)[C@@H](O)C[C@]2(C)[C@@]1(O)C(=O)CO [Dex, dexamethasone]
- protection of hair cells against cisplatin-induced damage (in words) (lateral line hair cells): partial rescue of hair cell damage against cisplatin; also recorded: protects/rescues the hair cells from cisplatin-induced damage
- effect of pre-exposure on rheotaxis after cisplatin (in words) (zebrafish): significantly improved the ability of fish to perform rheotaxis; also recorded: statistically significant rescue/protective effect
